Results reported in US7632811B2 (Societe de Conseils de Recherches et D'Applications …, priority 1995, dated 2009).

Assays:
[1] = general procedure: Boc solid-phase peptide synthesis; 4-Methylbenzhydrylamine (MBHA) resin (Peninsula), 0.93 mmol/g; details: whole synthesis, analytical HPLC
[2] = general procedure: Boc solid-phase peptide synthesis; MBHA; details: whole synthesis, analytical HPLC

| Substance | final HPLC purity [1] | final HPLC purity [2] |
| --- | --- | --- |
| [Cha^22, Leu^23, 28, 31, Glu^25, Lys^26,30, Ahc^27, Aib^29]hPTHrP(1-34)NH2 | >99% |  |
| [Cha^7,11]hPTH(1-34)NH2 | >98% |  |
| [Glu^22,25, Leu^23,28, Lys^26,30, Aib^29, Ahc^31]hPTH(1-34)NH2 |  | >99% |
| [Aib^34]hPTH(1-34)NH2 |  | >99% |
